Tested on: pregnant rats
Assay: Antenatal treatment of pregnant rats: weight of maternal and fetal lungs
Assay type: in vivo, rat
Settings: antenatal treatment 48 h
Protocol: Leptin (1 mg/kg body weight) was administered to pregnant rats at d16 of gestation and 24 h later by intraperitoneal injection. Dexamethasone at 6 mg per kg body weight was administered at similar time intervals as leptin. In addition, the effect of a combination of leptin and dexamethasone treatment was tested. After 48 h of leptin, dexamethasone or leptin/dexamethasone exposure, premature delivery of the rat pups was induced at d18, which is similar to 30 weeks of gestation in the human. The fetuses from each litter were pooled and weighed, and various tissues from both the rat fetuses and mothers were also dissected and weighed. […] Antenatal treatment with dexamethasone increased fetal lung weight by 41%.

leptin
Average weight fetal head (delivery at d18, n = 9): 0.45 (n = 9) g | Average weight fetus (delivery at d18, n = 9): 1.56 (n = 9) g | Maternal lung weight (leptin 1 mg/kg, dexamethasone 6 mg/kg i.p.): 1.21 g
